# Test results published in the supplement of paper PMC10849652.
# Sequences of proteins named here, by UniProt entry; tags and fusion partners are left off. A change or cut given only in a name is not applied to a line headed by its entry.
# UniProt Q8NCN4: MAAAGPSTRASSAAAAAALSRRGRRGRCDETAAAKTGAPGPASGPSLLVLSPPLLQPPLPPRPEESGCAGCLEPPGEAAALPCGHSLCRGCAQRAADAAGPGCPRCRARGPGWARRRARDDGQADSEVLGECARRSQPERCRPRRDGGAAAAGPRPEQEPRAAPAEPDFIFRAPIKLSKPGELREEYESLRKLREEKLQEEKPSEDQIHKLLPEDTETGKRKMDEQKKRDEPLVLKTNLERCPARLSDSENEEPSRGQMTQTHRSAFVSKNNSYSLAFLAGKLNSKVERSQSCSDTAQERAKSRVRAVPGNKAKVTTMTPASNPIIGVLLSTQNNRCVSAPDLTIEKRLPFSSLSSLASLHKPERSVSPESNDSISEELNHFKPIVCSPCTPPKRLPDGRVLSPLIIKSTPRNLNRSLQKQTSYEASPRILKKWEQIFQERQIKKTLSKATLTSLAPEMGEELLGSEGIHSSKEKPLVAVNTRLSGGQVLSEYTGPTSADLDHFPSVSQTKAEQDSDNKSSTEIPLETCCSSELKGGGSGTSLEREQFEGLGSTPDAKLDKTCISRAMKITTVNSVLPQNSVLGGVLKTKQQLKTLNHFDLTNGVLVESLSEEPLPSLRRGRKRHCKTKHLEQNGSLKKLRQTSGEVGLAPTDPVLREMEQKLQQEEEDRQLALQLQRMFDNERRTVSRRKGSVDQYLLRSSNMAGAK
# UniProt Q6NTF9: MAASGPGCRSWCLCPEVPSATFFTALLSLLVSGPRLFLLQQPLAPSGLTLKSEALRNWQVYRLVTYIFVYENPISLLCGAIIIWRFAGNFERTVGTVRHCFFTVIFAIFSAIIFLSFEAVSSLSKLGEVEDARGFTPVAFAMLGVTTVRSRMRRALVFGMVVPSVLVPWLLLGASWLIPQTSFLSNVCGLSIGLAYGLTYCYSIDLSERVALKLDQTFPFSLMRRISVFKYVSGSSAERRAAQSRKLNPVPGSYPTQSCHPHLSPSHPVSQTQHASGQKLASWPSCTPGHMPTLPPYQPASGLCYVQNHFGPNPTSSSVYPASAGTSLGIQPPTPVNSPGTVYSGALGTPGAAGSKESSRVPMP
# UniProt Q6PCD5: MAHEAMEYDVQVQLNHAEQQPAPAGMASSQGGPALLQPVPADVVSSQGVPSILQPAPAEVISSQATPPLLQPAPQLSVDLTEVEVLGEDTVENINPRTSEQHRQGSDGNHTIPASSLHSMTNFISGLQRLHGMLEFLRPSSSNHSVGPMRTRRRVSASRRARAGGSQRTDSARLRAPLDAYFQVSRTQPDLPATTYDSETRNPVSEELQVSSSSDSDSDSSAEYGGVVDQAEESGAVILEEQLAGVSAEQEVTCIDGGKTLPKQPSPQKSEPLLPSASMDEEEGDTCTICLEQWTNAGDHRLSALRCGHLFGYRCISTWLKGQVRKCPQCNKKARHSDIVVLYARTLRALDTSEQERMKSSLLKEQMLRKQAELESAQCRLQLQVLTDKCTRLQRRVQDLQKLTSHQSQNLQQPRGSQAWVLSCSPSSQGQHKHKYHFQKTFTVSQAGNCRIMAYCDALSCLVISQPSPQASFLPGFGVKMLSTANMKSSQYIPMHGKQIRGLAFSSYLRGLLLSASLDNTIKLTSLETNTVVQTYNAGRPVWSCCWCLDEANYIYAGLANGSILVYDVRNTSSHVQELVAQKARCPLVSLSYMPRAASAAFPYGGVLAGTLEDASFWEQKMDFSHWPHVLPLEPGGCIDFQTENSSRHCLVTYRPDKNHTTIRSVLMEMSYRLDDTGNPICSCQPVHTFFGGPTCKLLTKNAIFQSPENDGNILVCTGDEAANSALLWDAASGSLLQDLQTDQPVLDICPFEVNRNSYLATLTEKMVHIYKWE
# UniProt Q15493: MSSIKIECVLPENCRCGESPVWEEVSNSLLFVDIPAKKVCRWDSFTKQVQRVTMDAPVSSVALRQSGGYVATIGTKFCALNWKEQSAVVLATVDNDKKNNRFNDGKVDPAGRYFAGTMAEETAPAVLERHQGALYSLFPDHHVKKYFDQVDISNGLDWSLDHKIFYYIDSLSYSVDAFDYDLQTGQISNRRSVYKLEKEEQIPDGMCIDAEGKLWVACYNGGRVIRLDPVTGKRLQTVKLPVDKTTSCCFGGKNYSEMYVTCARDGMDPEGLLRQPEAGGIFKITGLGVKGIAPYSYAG
# UniProt P48380: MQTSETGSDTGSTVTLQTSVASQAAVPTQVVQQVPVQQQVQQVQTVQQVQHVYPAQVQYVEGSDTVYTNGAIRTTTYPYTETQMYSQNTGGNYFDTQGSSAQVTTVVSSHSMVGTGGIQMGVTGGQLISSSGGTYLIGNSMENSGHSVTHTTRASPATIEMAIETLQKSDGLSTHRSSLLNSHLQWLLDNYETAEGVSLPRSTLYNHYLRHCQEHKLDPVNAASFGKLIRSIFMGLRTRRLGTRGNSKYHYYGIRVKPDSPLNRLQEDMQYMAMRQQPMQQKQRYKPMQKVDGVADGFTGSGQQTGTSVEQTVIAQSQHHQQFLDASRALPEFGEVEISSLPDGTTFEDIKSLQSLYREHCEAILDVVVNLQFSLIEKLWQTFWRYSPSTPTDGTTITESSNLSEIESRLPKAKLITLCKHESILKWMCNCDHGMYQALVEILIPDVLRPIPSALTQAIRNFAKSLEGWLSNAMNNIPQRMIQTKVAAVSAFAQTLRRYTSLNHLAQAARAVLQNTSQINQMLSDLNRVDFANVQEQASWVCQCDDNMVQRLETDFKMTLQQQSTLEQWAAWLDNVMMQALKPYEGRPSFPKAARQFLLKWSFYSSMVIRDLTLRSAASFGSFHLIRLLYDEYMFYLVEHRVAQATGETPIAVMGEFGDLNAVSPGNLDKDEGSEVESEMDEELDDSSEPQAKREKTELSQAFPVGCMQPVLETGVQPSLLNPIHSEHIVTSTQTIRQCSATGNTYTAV
# UniProt Q8WU17: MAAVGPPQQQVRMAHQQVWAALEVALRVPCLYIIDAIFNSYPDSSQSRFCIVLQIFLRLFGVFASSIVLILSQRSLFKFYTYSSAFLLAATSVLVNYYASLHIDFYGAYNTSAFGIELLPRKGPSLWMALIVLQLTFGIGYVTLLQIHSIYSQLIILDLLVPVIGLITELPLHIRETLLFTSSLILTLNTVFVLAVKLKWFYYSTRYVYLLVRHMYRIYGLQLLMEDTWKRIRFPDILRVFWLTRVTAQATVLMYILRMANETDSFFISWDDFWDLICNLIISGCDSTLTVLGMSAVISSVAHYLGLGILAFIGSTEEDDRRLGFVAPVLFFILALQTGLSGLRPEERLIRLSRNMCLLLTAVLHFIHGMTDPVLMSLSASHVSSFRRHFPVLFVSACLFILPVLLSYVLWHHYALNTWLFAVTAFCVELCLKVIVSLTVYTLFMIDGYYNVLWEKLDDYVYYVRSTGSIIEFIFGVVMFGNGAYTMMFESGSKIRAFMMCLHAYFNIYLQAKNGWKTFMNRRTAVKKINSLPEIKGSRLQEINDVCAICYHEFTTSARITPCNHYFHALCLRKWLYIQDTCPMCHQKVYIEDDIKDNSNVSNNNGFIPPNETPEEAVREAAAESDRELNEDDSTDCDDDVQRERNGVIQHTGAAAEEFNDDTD
# UniProt Q06587: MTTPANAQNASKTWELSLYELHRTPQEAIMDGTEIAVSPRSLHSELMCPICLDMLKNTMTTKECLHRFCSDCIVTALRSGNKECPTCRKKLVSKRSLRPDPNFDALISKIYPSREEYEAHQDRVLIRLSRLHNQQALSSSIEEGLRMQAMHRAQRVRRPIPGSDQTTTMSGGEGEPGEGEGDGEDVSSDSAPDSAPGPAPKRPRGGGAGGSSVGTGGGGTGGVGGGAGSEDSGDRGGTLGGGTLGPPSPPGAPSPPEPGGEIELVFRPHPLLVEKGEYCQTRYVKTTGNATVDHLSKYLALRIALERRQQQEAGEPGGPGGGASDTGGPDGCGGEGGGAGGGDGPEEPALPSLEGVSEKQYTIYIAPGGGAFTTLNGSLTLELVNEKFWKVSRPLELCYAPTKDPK
# UniProt Q5RL73: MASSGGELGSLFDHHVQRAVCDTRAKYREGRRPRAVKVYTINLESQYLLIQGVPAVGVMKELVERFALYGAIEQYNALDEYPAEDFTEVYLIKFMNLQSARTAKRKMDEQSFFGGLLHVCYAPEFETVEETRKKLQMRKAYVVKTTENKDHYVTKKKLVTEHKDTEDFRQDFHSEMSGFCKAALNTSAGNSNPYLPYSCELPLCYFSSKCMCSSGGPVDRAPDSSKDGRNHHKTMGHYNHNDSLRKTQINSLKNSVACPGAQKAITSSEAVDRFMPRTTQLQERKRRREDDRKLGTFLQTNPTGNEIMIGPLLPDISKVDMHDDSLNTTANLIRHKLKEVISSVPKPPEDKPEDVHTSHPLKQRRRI
# UniProt P34096: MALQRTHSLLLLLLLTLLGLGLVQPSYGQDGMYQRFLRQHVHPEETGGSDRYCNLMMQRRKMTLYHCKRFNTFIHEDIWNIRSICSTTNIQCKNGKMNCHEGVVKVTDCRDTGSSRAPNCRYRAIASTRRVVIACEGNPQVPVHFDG
# UniProt Q92546: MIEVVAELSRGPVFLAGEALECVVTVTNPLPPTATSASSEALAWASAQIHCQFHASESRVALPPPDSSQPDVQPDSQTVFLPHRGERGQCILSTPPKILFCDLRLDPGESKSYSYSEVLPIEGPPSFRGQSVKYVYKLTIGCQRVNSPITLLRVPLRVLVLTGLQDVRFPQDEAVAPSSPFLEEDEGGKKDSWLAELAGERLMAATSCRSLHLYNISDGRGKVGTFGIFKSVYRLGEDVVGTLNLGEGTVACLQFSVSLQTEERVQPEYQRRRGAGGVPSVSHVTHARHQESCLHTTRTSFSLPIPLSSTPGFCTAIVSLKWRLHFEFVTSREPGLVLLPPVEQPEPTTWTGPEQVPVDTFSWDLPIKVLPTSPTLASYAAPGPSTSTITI
# UniProt Q8WVD5: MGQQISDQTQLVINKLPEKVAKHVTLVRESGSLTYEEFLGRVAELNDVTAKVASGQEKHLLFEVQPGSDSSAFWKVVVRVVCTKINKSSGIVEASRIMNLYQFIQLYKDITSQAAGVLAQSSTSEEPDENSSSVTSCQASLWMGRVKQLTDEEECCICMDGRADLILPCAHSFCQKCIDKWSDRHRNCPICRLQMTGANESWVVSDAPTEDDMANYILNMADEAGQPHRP
# UniProt Q02161: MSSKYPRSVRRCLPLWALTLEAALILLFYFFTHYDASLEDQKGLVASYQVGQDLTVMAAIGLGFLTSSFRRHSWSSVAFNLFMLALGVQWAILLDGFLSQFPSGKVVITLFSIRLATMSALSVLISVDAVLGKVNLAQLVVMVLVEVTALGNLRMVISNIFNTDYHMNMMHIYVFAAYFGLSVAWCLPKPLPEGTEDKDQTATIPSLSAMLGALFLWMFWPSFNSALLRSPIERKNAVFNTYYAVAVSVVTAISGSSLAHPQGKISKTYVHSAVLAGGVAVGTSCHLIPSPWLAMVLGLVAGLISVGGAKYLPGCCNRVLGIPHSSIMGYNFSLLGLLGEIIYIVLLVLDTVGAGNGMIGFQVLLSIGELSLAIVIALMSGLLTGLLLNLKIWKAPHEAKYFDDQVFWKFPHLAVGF
# UniProt O43566: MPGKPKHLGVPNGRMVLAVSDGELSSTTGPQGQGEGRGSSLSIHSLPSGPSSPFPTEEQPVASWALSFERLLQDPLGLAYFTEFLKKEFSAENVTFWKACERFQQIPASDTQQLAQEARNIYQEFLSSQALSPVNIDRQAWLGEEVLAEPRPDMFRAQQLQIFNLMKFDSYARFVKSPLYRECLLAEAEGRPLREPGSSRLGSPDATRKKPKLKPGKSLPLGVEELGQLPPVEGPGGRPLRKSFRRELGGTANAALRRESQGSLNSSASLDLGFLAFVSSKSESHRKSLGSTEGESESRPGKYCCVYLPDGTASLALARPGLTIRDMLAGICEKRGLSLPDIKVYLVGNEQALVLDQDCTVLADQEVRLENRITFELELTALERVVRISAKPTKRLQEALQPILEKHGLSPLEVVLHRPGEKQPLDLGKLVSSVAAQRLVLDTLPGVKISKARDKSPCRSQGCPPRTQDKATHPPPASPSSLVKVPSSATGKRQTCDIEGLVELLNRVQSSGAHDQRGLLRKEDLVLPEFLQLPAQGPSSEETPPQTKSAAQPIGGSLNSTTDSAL
# UniProt A6NEQ0: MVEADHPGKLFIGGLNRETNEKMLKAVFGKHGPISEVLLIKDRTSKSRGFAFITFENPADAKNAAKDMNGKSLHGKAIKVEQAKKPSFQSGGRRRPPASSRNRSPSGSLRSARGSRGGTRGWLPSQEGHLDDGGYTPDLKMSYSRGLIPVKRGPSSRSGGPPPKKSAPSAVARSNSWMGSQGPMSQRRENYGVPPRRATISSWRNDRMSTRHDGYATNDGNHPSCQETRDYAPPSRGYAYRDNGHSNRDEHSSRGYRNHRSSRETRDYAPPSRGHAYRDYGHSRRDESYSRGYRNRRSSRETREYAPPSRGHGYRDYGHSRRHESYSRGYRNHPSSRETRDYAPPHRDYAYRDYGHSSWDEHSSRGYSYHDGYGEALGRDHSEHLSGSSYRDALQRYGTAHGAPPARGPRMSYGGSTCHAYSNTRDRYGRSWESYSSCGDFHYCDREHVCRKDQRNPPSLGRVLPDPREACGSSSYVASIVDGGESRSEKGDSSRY
# This is one part of the list.
# Compound: CN1CCN(CCOc2cc(OC3CCOCC3)c3c(Nc4c(Cl)ccc5c4OCO5)ncnc3c2)CC1 [saracatinib]
# Test: log2 fold change, soluble protein after heating vs DMSO (PISA); higher = thermal stabilisation; K562 cells, 10 uM, 30 min; active = over 0.2 and 3.5 SD of the protein, either way, in both replicates (recomputed)
# Outline: (§1)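 K562 cells at 2×10^6 cells/mL were given 10 μM compound for 30 min. Aliquots then went through 3 min of heating across 48°C-58°C, were pooled, and were extracted in PBS with 0.5% NP-40 at 4°C, and the supernatant after 21,000xg for 90 min was quantified by TMTpro 16plex LC-MS/MS with channel sums equalised. Thermal stability relative to control samples, from duplicates, is given as log2 fold change.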
row,Target,log2 fold change
1,RNF24 isoform 2 (UniProt Q9Y225),inactive: -0.123
2,RNF169 (UniProt Q8NCN4),inactive: 0.086
3,RECQL5 (UniProt O94762),inactive: 0.075
4,RHBDD2 isoform 2 (UniProt Q6NTF9),inactive: 0.023
5,RNF170 (UniProt Q96K19),inactive: 0.257
6,RCL1 (UniProt Q5VZU2),inactive: -0.291
7,RBP1 isoform 3 (UniProt P09455),inactive: 0.178

# Compound: CN1CCN(c2nc(C3=C(c4c[nH]c5ccccc45)C(=O)NC3=O)c3ccccc3n2)CC1 [sotrastaurin]
# Test: as above
# Outline: as §1
row,Target,log2 fold change
1,RFWD3 (UniProt Q6PCD5),inactive: 0.053
2,RGN (UniProt Q15493),inactive: 0.022
3,RERE (UniProt Q9P2R6),inactive: -0.059
4,RFX3 (UniProt P48380),inactive: -0.007
5,RNF139 (UniProt Q8WU17),inactive: 0.079
6,RING1 (UniProt Q06587),inactive: -0.086
7,RBM48 isoform 2 (UniProt Q5RL73),inactive: -0.001
8,RHOXF2B (UniProt P0C7M4),inactive: 0.419
9,RNASE4 (UniProt P34096),inactive: 0.071
10,RGP1 (UniProt Q92546),inactive: 0.056
11,RIMKLB (UniProt Q9ULI2),inactive: -0.001
12,RNF141 (UniProt Q8WVD5),inactive: -0.041
13,RFX5 (UniProt P48382),inactive: -0.128

# Compound: CN1CC[C@H](c2c(O)cc(O)c3c(=O)cc(-c4ccccc4Cl)oc23)[C@H](O)C1 [alvocidib]
# Test: as above
# Outline: as §1
row,Target,log2 fold change
1,REX1BD (UniProt Q96EN9),inactive: -0.498
2,RHD (UniProt Q02161),inactive: 0.018
3,RFWD3 (UniProt Q6PCD5),inactive: 0.015
4,RING1 (UniProt Q06587),inactive: -0.25
5,RNF169 (UniProt Q8NCN4),inactive: 0.014
6,RECQL5 (UniProt O94762),inactive: 0.11
7,RHBDD2 isoform 2 (UniProt Q6NTF9),inactive: 0.071
8,RNASE4 (UniProt P34096),inactive: 0.008
9,RNF170 (UniProt Q96K19),inactive: 0.052
10,RGS14 (UniProt O43566),inactive: 0.302
11,RGP1 (UniProt Q92546),inactive: 0.071
12,RNF130 (UniProt Q86XS8),inactive: -0.121

# Compound: CN1CCc2c(c3ccccc3n2Cc2ccc(C(=O)NO)cc2)C1 [Tubastatin A]
# Test: as above
# Outline: as §1
row,Target,log2 fold change
1,RHD (UniProt Q02161),inactive: -0.081
2,RGN (UniProt Q15493),inactive: -0.079
3,RNF139 (UniProt Q8WU17),inactive: 0.062
4,RBMY1E (UniProt A6NEQ0),inactive: 0.016
5,RING1 (UniProt Q06587),inactive: 0.072
6,RBM48 isoform 2 (UniProt Q5RL73),inactive: 0.016
7,RNF169 (UniProt Q8NCN4),inactive: 0.098
8,RNASE4 (UniProt P34096),inactive: 0.003
9,RIPOR1 isoform 4 (UniProt Q6ZS17),inactive: 0.143
10,RGS14 (UniProt O43566),inactive: 0.021
11,RNF185 (UniProt Q96GF1),inactive: 0.011
12,RGP1 (UniProt Q92546),inactive: -0.056
13,RCL1 (UniProt Q5VZU2),inactive: 0.274
14,RNF141 (UniProt Q8WVD5),inactive: -0.032
15,RC3H2 (UniProt Q9HBD1),inactive: -0.263

# Compound: CNC(=O)C1=CC=CC=C1NC2=NC(=NC=C2Cl)NC3=C(C=C(C=C3)N4CCOCC4)OC
# Test: as above
# Outline: as §1
row,Target,log2 fold change
1,RHD (UniProt Q02161),inactive: 0.064
2,RFWD3 (UniProt Q6PCD5),inactive: -0.015
3,RNF24 isoform 2 (UniProt Q9Y225),inactive: -0.031
4,RERE (UniProt Q9P2R6),inactive: -0.031
5,RNF220 isoform 3 (UniProt Q5VTB9),inactive: -0.067
6,RFX3 (UniProt P48380),inactive: -0.054
7,RNF139 (UniProt Q8WU17),inactive: 0.063
8,RBMY1E (UniProt A6NEQ0),inactive: -0.049
9,RING1 (UniProt Q06587),inactive: 0.075
10,RBM48 isoform 2 (UniProt Q5RL73),inactive: -0.065
11,RHBDD2 isoform 2 (UniProt Q6NTF9),inactive: -0.028
12,RNASE4 (UniProt P34096),inactive: -0.058
13,RGS14 (UniProt O43566),inactive: -0.111
14,RNF185 (UniProt Q96GF1),inactive: 0.001
15,RGP1 (UniProt Q92546),inactive: -0.024
16,RIMKLB (UniProt Q9ULI2),inactive: -0.143
17,RNF141 (UniProt Q8WVD5),inactive: 0.053
18,RIC8B isoform 1 (UniProt Q9NVN3),inactive: -0.245
19,RGCC (UniProt Q9H4X1),inactive: -0.077
20,RNF130 (UniProt Q86XS8),inactive: 0.019
21,RIT1 isoform 3 (UniProt Q92963),inactive: 0.081
22,RNF111 isoform 3 (UniProt Q6ZNA4),inactive: -0.151
23,RFX5 (UniProt P48382),inactive: -0.109
